From patent US6787149B1 (El Khoury and Stein Ltd., priority 2000, dated 2004)

What was measured:
[1] = system: patients who had skin burns from the sun; details: less than one mg, diluted and sprayed on the shoulder areas
[2] = system: patient with severe infection of the skin around the colostomy
[3] = system: patients with inflamed skin conditions causing intense pain; test: Topical morphine sulfate formulations (spray or K-Y gel) in patients with painful inflamed skin conditions, Tables 1 and 2

CN1CC[C@]23c4c5ccc(O)c4O[C@H]2[C@@H](O)C=C[C@H]3[C@H]1C5.O=S(=O)(O)O [Morphine, morphine sulfate]
Pain of sunburn [1]: able to alleviate the pain | Pain during changing of the dressing ([2]; 15 or 30 mg i.v.): still experienced severe pain | Dulling of pain for dressing change and wound cleaning ([2]; morphine drip): ineffective | Description after Treatment ([3]; Patient 1, 69, radiation therapy blisters on buttocks (carcinoma of prostate), K-Y Jelly 120 cc, Morphine 90 mg, three times): no pain at all, able to | Description after Treatment ([3]; Patient 2, 57, radiation therapy blisters on buttocks (carcinoma of cervix), K-Y Jelly 120 cc, Morphine 90 cc, every 6 hours times 3 days): pain disappears | Description after Treatment ([3]; Patient 3, 73, radiation therapy, very sensitive breasts (carcinoma of breast), Saline 120 cc, Morphine 90 cc, every 6 hours times 7 days): pain disappeared for | Description after Treatment: time for which pain disappeared ([3]; Patient 3, radiation therapy, breast, Saline 120 cc, Morphine 90 cc, every 6 hours): six hours; able to sleep | Description after Treatment ([3]; Patient 4, 4 yr, tonsillectomy, Saline 120 cc, Morphine 90 cc, spray tonsil beds after surgery, one time): No pain after surgery; | Description after Treatment ([3]; Patient 5, 6 yr, tonsillectomy, Saline 120 cc, Morphine 90 cc, spray tonsil beds after surgery, one time): No pain after surgery; | Description after Treatment ([3]; Patient 6, 13, third degree hot oil burn on right thigh, Saline 120 cc, Morphine 90 cc, spray x 3 over 3 hours): Pain is gone; complete | Description after Treatment: complete healing time ([3]; Patient 6, third degree hot oil burn, Saline 120 cc, Morphine 90 cc spray): healing over two days | Description after Treatment ([3]; Patient 7, 28, second degree sunburn of shoulders, unable to wear lead apron before, Saline 120 cc, Morphine 90 cc, spray x 2 over 12 hours): Able to wear lead | Description after Treatment ([3]; Patient 8, 34, shingles (acute Herpes Zoster), Saline 120 cc, Morphine 90 cc, spray every 4 hours times 3): Stopped all pain | Description after Treatment: healing time ([3]; Patient 8, shingles, Saline 120 cc, Morphine 90 cc spray): three days | Description after Treatment: share of pain disappeared in one day ([3]; Patient 9, 64, shingles on forehead, K-Y Jelly 120 cc, Morphine 90 cc, every 6 hours, in one day): 60%-70% of pain | Description after Treatment: time to complete disappearance of pain ([3]; Patient 9, shingles on forehead, K-Y Jelly 120 cc, Morphine 90 cc, every 6 hours): day, completely in 3-4 days | Description after Treatment: pain relieved ([3]; Patient 10, 81, shingles of left leg, K-Y Jelly 120 cc, Morphine 90 cc, every 6 hours, over 3 days): Pain relieved 50% | Description after Treatment: pain medication needed ([3]; Patient 10, shingles of left leg, K-Y Jelly 120 cc, Morphine 90 cc, every 6 hours): over 3 days; no more | Side effects (addiction, dullness in the brain, respiratory depression, nausea, vomiting, itching) ([3]; two or three mg sprayed or applied topically to about six inches square of skin): without any side effects
